Laboratory results published in paper PMC7784271.
These are yes or no findings as the source states them, for the method shown. Binding seen in cells or lysates may run through a third protein. Some results given as binding are weak or reduced against the parent protein; the word gives no strength.

Sequences of proteins named here, by UniProt entry; tags and fusion partners are left off. Residues count along the entry.
UniProt P48356, residues 22-1162: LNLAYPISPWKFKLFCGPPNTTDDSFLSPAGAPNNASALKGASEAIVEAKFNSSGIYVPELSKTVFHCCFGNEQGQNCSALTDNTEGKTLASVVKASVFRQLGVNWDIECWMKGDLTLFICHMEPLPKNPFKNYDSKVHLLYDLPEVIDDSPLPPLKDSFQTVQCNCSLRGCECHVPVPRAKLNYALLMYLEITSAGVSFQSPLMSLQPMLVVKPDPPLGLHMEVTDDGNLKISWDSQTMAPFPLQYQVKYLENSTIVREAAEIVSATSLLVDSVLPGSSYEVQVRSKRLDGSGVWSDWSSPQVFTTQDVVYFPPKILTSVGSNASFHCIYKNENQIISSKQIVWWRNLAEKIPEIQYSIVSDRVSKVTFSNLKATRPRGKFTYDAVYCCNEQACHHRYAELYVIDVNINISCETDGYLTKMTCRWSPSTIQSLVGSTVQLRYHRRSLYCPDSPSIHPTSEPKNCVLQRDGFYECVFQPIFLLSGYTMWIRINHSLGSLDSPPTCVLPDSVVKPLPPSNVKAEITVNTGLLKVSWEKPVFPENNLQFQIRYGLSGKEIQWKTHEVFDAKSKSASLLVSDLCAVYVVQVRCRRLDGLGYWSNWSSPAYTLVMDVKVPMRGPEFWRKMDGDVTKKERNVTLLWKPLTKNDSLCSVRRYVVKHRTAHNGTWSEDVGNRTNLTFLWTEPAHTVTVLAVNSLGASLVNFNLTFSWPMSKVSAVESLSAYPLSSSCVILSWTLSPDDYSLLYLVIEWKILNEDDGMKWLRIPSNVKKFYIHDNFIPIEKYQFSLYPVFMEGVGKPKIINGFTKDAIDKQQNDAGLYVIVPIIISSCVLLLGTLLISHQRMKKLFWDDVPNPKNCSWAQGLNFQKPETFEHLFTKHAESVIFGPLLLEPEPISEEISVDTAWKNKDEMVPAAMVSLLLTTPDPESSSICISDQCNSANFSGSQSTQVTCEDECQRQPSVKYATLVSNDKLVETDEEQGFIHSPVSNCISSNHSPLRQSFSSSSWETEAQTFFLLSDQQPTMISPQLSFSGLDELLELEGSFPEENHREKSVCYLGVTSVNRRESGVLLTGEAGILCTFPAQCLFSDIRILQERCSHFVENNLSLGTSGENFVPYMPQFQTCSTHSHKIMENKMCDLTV

Biological target: T1, Annexin A7 (ANXA7) (mouse (endogenous in Hca-F)) (UniProt Q07076)
T1 sequence: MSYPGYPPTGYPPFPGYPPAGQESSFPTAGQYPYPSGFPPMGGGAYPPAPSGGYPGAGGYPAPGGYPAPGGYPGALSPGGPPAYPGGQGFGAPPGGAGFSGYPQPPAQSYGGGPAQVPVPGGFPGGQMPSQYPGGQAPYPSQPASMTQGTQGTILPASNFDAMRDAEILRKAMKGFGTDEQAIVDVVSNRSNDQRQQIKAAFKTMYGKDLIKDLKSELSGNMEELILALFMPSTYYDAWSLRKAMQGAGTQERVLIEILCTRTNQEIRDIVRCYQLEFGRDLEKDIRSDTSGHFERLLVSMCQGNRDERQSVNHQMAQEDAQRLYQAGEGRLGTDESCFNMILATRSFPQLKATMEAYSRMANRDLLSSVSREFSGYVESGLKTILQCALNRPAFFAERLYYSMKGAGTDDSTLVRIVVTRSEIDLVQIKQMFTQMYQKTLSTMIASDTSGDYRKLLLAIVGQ
Experiment: co-IP; Hca-F cell lysate incubated overnight at 4 °C with primary antibody, immune complexes captured on Protein A/G agarose (Proteintech IP Kit KIP-1), eluates immunoblotted

- binding: binds
Substance: Leptin Receptor (LEPR) (from UniProt P48356 22-1162)
